The test relates to SK-BR-3. Briefly: normalised viability (% of control), CellTiter-Blue; higher = more viable cells (about 100 = DMSO control). The conditions noted are these: 1000 nM; incubation time: 72 h. The gist of the method:
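Each entry is normalised viability at a single listed concentration within a series. It comes from breast cancer cell lines incubated 72 h with compound in 384-well plates, then measured with CellTiter-Blue fluorescence at 560/590 nm. Every plate was normalised between vehicle (100) and a positive kill control (0).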

In turn, `COc1cc2ncnc(Nc3ccc(F)c(Cl)c3)c2cc1OCCCN1CCOCC1` [Gefitinib] yielded a normalised viability of 62.2%.

The record behind these values is the supplement of paper PMC4862054.
